From ChEMBL document CHEMBL3988442, “University of Dundee, Small-Polar-MMV Screening Library” (2021).

By UniProt entry, the sequences of proteins in these tests, tags left out.
UniProt P9WFT3, whole entry: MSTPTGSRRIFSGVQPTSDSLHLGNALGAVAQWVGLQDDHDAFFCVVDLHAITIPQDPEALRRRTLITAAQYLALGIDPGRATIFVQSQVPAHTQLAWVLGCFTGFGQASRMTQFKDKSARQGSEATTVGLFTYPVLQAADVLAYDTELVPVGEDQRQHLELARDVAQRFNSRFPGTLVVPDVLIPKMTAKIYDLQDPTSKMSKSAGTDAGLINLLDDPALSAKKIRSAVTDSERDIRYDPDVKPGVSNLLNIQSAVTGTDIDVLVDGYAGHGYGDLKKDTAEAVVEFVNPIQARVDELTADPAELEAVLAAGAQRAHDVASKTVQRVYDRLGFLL
UniProt P9WNZ1, whole entry: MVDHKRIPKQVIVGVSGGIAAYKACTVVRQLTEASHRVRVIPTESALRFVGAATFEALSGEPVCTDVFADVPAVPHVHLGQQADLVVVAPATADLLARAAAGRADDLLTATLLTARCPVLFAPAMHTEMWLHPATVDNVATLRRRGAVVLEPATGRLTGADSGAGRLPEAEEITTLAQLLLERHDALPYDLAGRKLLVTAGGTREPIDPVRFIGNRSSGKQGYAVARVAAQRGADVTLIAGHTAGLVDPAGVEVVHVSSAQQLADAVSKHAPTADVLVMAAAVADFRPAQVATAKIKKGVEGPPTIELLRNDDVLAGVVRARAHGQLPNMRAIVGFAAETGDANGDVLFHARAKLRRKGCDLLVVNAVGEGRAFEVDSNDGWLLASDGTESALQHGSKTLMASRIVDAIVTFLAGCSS

Leishmania in macrophages: 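Cell assay of Leishmania donovani living inside macrophages; the read-out is not stated. Tested at 30 µM. Direction is inferred from retests: higher values go with stronger inhibition. About 69,000 compounds were tested under these conditions; 1.5% (about 1,000) showed 50% or more at least once.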
MtTrpRS: 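Enzyme assay of tryptophanyl-tRNA synthetase; the read-out is not stated. Target: Tryptophan-tRNA ligase, Mycobacterium tuberculosis (UniProt P9WFT3). Concentration: 10 µM. Higher most likely means stronger inhibition; the record gives no direction and few retests gave an IC50. Of about 65,000 compounds tested this way, about 64 (0.098%) reached 50% or more in at least one test.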
Toxoplasma: 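Assay of Toxoplasma gondii numbers, read through their beta-galactosidase reporter with a colour substrate. Tested at 10 µM. The record gives no direction; the compounds picked for IC50 retests had high values, so higher reads as fewer parasites. Of about 67,000 compounds tested this way, about 260 (0.38%) reached 50% or more in at least one test.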
CoaBC: 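Enzyme assay of CoaBC with a phosphate dye (Biomol Green) read at 650 nm. Target: Coenzyme A biosynthesis protein CoaBC, Mycobacterium tuberculosis (UniProt P9WNZ1). Tested at 30 µM. Higher reads as stronger inhibition, judged from the few compounds that gave an IC50. Most strong results did not repeat in a second test. About 67,000 compounds were tested under these conditions; 0.06% (about 40) showed 50% or more at least once.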

Each number is a percent effect as filed.
The record does not define 0% and 100%; most values in the screen are far below 50% and negative numbers occur (in some assays of this library far below -100).
The compounds are a random part of those screened.

* CS(=O)(=O)NCCNC(=O)NC1(c2ccc(F)cc2)CCCC1 | Leishmania in macrophages: 26.9%; MtTrpRS: 0.000008%; Toxoplasma: -0.7572%; CoaBC: 4.39%
* Cc1noc(C2CCCN(C(=O)c3ccc(Cl)cc3F)C2)n1 (centres undefined) | Leishmania in macrophages: 22.57%; MtTrpRS: 1.709%; Toxoplasma: 3.127%; CoaBC: -6.695%
* Cc1n[nH]c(CCC(=O)N2CCOC(Cc3ccccc3)C2)c1C (centres undefined) | Leishmania in macrophages: -5.874%; MtTrpRS: -9.667%; Toxoplasma: -4.179%; CoaBC: 9.274%
* Cc1cc(C(=O)N(CCN(C)C)Cc2ccc(Cl)cc2)no1 | Leishmania in macrophages: 19.49%; MtTrpRS: -5.556%; Toxoplasma: 4.172%; CoaBC: -16.99%
* CCN1CCOC(CNCc2ccc(OCc3ccccn3)cc2)C1 (centres undefined) | Leishmania in macrophages: 24.54%; MtTrpRS: 0.7741%; Toxoplasma: 12.66%; CoaBC: 6.102%
* CCOc1ccccc1CCNC(=O)NCC(O)c1cccs1 (centres undefined) | Leishmania in macrophages: -11.45%; MtTrpRS: -0.6399%; Toxoplasma: 0.8323%; CoaBC: 2.581%
* CCc1nsc(NC2CCCn3nc(CC)nc32)n1 (centres undefined) | Leishmania in macrophages: 11.64%; MtTrpRS: -3.908%; Toxoplasma: 0.5507%; CoaBC: 7.143%
* CCC(=O)N1CCCC1(C)c1nc(C)no1 (centres undefined) | Leishmania in macrophages: 20.69%; MtTrpRS: -5.252%; Toxoplasma: -6.15%; CoaBC: -2.628%
* CC(NC(=O)N(C)Cc1ccsc1)c1ccc2c(c1)CCC(=O)N2 (centres undefined) | Leishmania in macrophages: 22.75%; MtTrpRS: 0.6289%; Toxoplasma: -14.26%; CoaBC: -2.66%
* COCCc1nc(CN2CC(C)(c3ccccc3)CCC2=O)no1 (centres undefined) | Leishmania in macrophages: -25.66%; MtTrpRS: -8.404%; Toxoplasma: 1.722%; CoaBC: -7.066%
* Cc1cccn2cc(CN3CCCC(c4ccn[nH]4)C3)nc12 (centres undefined) | Leishmania in macrophages: 15.66%; MtTrpRS: -2.374%; Toxoplasma: 4.798%
* Cc1nc(-c2ccsc2)ccc1C(=O)N1CCn2c(C)nnc2C1 | Leishmania in macrophages: 7.659%; MtTrpRS: 6.174%; Toxoplasma: -2.641%; CoaBC: 0%
* O=C1[C@H]2CN(C3CCOCC3)C[C@H]2CN1Cc1cccc(F)c1 | MtTrpRS: -4.163%; CoaBC: -1.402%
* OCCN1CC2(CCN(CC3CC3)CC2)c2ccccc21 | MtTrpRS: -6.58%
* CCN1CCN(CCC(=O)NC2CC(c3cccc(Cl)c3)C2)CC1 (centres undefined) | Leishmania in macrophages: 19.11%; MtTrpRS: 0.4914%; Toxoplasma: -4.198%; CoaBC: -20.14%
* O=C(O)C(F)(F)F.O=C(O)C(F)(F)F.c1cnc(N2CCC3(CCN(CC4CCOC4)CC3)CC2)nc1 (centres undefined) | Leishmania in macrophages: 26.66%; Toxoplasma: 8.798%
* CC(C)N(C)C(=O)c1ccc(Cl)c(NC(=O)COCC2CC2)c1 | Leishmania in macrophages: 15.52%; MtTrpRS: 1.982%; Toxoplasma: -2.423%; CoaBC: 3.478%
* Cc1ncsc1-c1nc(Cc2cccs2)nn1C1CCN(C)CC1 | Leishmania in macrophages: 28.36%; MtTrpRS: 3.062%; Toxoplasma: 19.05%; CoaBC: -1.966%
* Cc1noc(NC(=O)c2ccc(C)c(F)c2)n1 | Leishmania in macrophages: 29.93%; MtTrpRS: -1.495%; CoaBC: 3.342%
* CCC1CN(C(=O)c2ccc(=O)[nH]c2)CCC(=O)N1Cc1ccccc1 (centres undefined) | Leishmania in macrophages: -15.63%; MtTrpRS: -1.517%; Toxoplasma: 4.827%; CoaBC: 3.376%
* COC(=O)C(c1cc(F)ccc1F)N(C)C(=O)c1cnccn1 (centres undefined) | Leishmania in macrophages: 0.4863%; MtTrpRS: 15.48%; Toxoplasma: 0.6847%; CoaBC: -2.609%
* CN1CCN(Cc2ccc(-c3ccc4[nH]ccc4c3)nc2)CC1 | Leishmania in macrophages: -38.55%; MtTrpRS: -3.461%; Toxoplasma: -8.08%; CoaBC: 3.321%
* O=C(Cc1ccc2c(c1)CCO2)N1CCN(c2cnccn2)CC1 | Leishmania in macrophages: -6.191%; MtTrpRS: 1.101%; Toxoplasma: -2.682%; CoaBC: -0.5319%
* CCc1cc(NCC(N)=O)nc(N2CCCCC2)n1 | Leishmania in macrophages: 21.93%; MtTrpRS: 2.808%; Toxoplasma: 21.38%; CoaBC: -1.491%
* COCCN(Cc1c(C)nn(C)c1C)C(=O)C1COc2ccccc2C1 (centres undefined) | Leishmania in macrophages: 22.03%; MtTrpRS: -9.065%; Toxoplasma: 5.595%; CoaBC: -2.564%
* CCn1ccnc1CN1C[C@@H](NC(=O)C2CC2)[C@H](c2ccc(C)cc2)C1 | Leishmania in macrophages: 24.59%; MtTrpRS: 12.67%; Toxoplasma: -3.959%; CoaBC: -0.6046%
* C/C(=C\c1ccccc1)CN1CCCC(c2nnc3n2CCNCC3)C1.Cl (centres undefined) | Leishmania in macrophages: 21.92%; Toxoplasma: 6.04%
* CCOc1nc2cnccc2n(CC(=O)Nc2ccccc2OC)c1=O | Leishmania in macrophages: -26.25%; MtTrpRS: -0.2935%; Toxoplasma: 3.593%; CoaBC: 3.73%
* CN1CCC(C(=O)N2CCCN(c3cccnn3)CC2)C1 (centres undefined) | Leishmania in macrophages: 21.75%; MtTrpRS: 4.636%; Toxoplasma: -1.509%; CoaBC: 9.634%
* Cc1ccc(CN2CCC3(CC2)C(=O)N(CC(C)C)CCN3C)o1.O=C(O)C(F)(F)F.O=C(O)C(F)(F)F | Leishmania in macrophages: -3.577%; Toxoplasma: -9.916%
* CN1C(=O)CC(c2cnn(C)c2)C12CCN(C(=O)c1ccno1)CC2 (centres undefined) | Leishmania in macrophages: 4.287%; MtTrpRS: -0.07639%; Toxoplasma: -11.71%; CoaBC: 7.505%
* COc1cccc(N2Cc3nc(=O)n(Cc4cccc(F)c4)n3C2=O)c1 | Leishmania in macrophages: 22.05%; MtTrpRS: 2.177%; Toxoplasma: 10.65%; CoaBC: 2.058%
* CN(Cc1cc[nH]n1)C(=O)c1cn(Cc2c(F)cccc2F)nn1 | Leishmania in macrophages: 24.38%; MtTrpRS: -3.849%; Toxoplasma: 18.65%; CoaBC: -5.66%